This note sets out measurements from patent US20240130994A1, “IONIC LIQUID FORMULATIONS FOR TREATING DIABETES” (i2O Therapeutics, Inc., priority 2020, published 2024).

The series is described as follows: Physical form of choline-based ionic liquids at room temperature. It counts as physicochemical. The settings on record: cation:anion 1:2, room temperature. On the procedure:
Several ionic liquids comprising choline as a cation and various anions were synthesized. […] For anions not miscible with the aqueous choline bicarbonate solution, a co-solvent, such as ethanol, was added until a homogenous mixture formed. The mixture was stirred at room temperature until CO2 evolution ceased. Solvent was removed by rotary evaporation at 60° C. for 20 minutes, and each product was dried in a vacuum oven for 48 hours at 60° C.

As to `CC(C)CC(=O)O` [Isovaleric Acid], the “Physical Form (Ratios Listed as Cation:Anion)” value was “Liquid at 1:2”.
